Results are given in words; binding and its absence hold for the method and conditions named. Binding seen in cells or lysates may run through a third protein. These calls come from enrichment with a bait or labelling near it, and not all partners need be listed. Tags and fused reporters may be left off the sequences shown.
Target: T1, HA-TBC1D15 wild type (UniProt Q8TC07)
T1 sequence: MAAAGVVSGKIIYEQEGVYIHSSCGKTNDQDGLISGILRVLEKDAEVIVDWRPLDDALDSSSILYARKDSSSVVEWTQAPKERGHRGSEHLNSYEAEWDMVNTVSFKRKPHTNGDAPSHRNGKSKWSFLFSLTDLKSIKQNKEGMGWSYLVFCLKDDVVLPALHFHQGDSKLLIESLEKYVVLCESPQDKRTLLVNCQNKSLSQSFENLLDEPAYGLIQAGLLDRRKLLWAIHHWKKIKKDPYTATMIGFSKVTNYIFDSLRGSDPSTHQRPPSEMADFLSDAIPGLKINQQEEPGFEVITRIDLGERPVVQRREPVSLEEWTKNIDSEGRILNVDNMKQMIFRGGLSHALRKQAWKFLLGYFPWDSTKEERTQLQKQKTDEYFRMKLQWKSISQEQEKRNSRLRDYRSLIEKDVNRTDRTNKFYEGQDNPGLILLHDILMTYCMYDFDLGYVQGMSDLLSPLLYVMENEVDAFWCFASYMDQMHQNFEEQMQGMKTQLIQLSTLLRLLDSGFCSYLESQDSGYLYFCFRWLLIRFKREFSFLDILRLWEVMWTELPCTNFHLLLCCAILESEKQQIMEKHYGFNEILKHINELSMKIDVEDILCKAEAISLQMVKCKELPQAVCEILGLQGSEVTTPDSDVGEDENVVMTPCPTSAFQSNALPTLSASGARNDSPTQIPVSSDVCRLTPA
Assay: affinity purification with mass spectrometry

- binding: binds
B1: KIF22 (endogenous) (protein, UniProt Q14807 1-665)
chain: MAAGGSTQQRRREMAAASAAAISGAGRCRLSKIGATRRPPPARVRVAVRLRPFVDGTAGASDPPCVRGMDSCSLEIANWRNHQETLKYQFDAFYGERSTQQDIYAGSVQPILRHLLEGQNASVLAYGPTGAGKTHTMLGSPEQPGVIPRALMDLLQLTREEGAEGRPWALSVTMSYLEIYQEKVLDLLDPASGDLVIREDCRGNILIPGLSQKPISSFADFERHFLPASRNRTVGATRLNQRSSRSHAVLLVKVDQRERLAPFRQREGKLYLIDLAGSEDNRRTGNKGLRLKESGAINTSLFVLGKVVDALNQGLPRVPYRDSKLTRLLQDSLGGSAHSILIANIAPERRFYLDTVSALNFAARSKEVINRPFTNESLQPHALGPVKLSQKELLGPPEAKRARGPEEEEIGSPEPMAAPASASQKLSPLQKLSSMDPAMLERLLSLDRLLASQGSQGAPLLSTPKRERMVLMKTVEEKDLEIERLKTKQKELEAKMLAQKAEEKENHCPTMLRPLSHRTVTGAKPLKKAVVMPLQLIQEQAASPNAEIHILKNKGRKRKLESLDALEPEEKAEDCWELQISPELLAHGRQKILDLLNEGSARDLRSLQRIGPKKAQLIVGWRELHGPFSQVEDLERVEGITGKQMESFLKANILGLAAGQRCGAS

Source: publication doi:10.1101/2022.12.14.520480
